Laboratory results reported in PubChem BioAssay AID2685 (National Center for Advancing Translational Sciences (NCATS), 2010).
The list shows a part of the results. Shown are side measurements of this screen, not its main read-out; they come without a call. Most of these compounds were active or inconclusive in the main read-out, so they are no random draw. The note in brackets gives the kind of curve behind each potency; many fits are weak.

Assay: qHTS Assay for Lipid Storage Modulators in Drosophila S3 Cells;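 on cell number change: cells counted by Cell Tracker Red CMTPX staining in the red channel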
Conditions: BODIPY lipid droplet fluorescence, 18-24 h; for cell number change: measured here: cell count max response, cells fed with added oleic acid
Procedure, shortened: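 Drosophila S3 cells got compounds at several concentrations plus oleic acid (400 uM solution). Laser-scanning cytometry with 488 nm excitation read lipid droplets at 500-530 nm and cells at 575-640 nm. Percent activity was relative to 20 uM Triacsin C.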

[1] = measured here: cell number channel AC50, cells fed with added oleic acid
[2] = measured here: lipid fluorescence (Fed channel) AC50, cells fed with added oleic acid

SMILES	cell number change	AC50 [1]	AC50 [2]
COc1ccc(C(=O)Nc2ncc3c(n2)CC(C)CC3=O)cc1 (stereo not given)	39.2%	32600 nM [rising, partial curve, poor fit]	–
CCOc1ccc(CCNC(=O)c2cc3ccccn3n2)cc1OCC	-36.8%	4.61 nM [falling, full curve, poor fit]	29100 nM [falling, single point]
COCCNC(=O)c1cnn2c(C(F)(F)F)cc(-c3ccc4c(c3)OCO4)nc12	–	5.8 nM [rising, full curve, poor fit]	–
COc1ccc(CCNC(=O)CN2C(=O)c3cccc4cccc(c34)C2=O)cc1OC	-59.2%	1160 nM [falling, full curve]	51.7 nM [falling, full curve]
COc1ccc(NC(=O)COc2ccc(C(=O)NC3CCCc4ccccc43)cc2OC)cc1 (stereo not given)	17.9%	–	3260 nM [rising, single point]
Cc1ccc(C(=O)Nc2ccc(S(=O)(=O)N3CCCC3)cc2)s1	-19.1%	–	29100 nM [rising, single point]
COc1cc(NC(=O)c2ccc([N+](=O)[O-])o2)ccc1NC(=O)c1ccco1	–	–	10300 nM [falling, partial curve]
NNC(=S)Nc1cccc(-c2n[nH]c(=S)o2)c1	14.7%	–	651 nM [falling, single point]
CCn1c(=N)n(CC(=O)c2cccc(OC)c2)c2ccccc21	6.19%	920 nM [rising, full curve]	1460 nM [rising, partial curve]
c1ccc2[nH]c(NCc3ccc4c(c3)OCO4)nc2c1	-37.8%	2060 nM [falling, single point]	–
COc1ccccc1NC(=O)CSc1nnc(CNC(=O)c2cccs2)o1	20.4%	4.11 nM [rising, full curve, poor fit]	–
Cc1cccc(NC(=O)NNC(=O)c2cc3occc3[nH]2)c1C	-1.52%	–	–
CC(=O)NC(Cc1ccccc1C)C(=O)NC1CCN(C(=O)c2cccc(C)c2)CC1 (stereo not given)	28.5%	–	20600 nM [rising, partial curve, poor fit]
CC(=O)c1ccc(NS(=O)(=O)c2ccc(N)cc2)cc1	-3.15%	–	651 nM [falling, single point]
CCc1cc(C(=O)Nc2nc(-c3ccccn3)cs2)sc1C	–	–	6510 nM [falling, single point]
COc1ccc(O)c(/C=C2/SC(=S)N(Cc3ccccc3)C2=O)c1	-48.9%	–	29100 nM [falling, single point]
O=S(=O)(Nc1cccc2nsnc12)c1ccccc1	78.6%	10300 nM [rising, partial curve]	–
CC1(C)CC(=O)C=C(N2CCOCC2)C1	-40.7%	16400 nM [falling, single point]	14600 nM [falling, partial curve]
O=C(c1cc2ccccc2o1)N(C1CC1)C1(C(=O)Nc2ccccc2)CCCC1	-11.5%	–	–

SMILES	cell number change	AC50 [1]	AC50 [2]
O=S(=O)(CC(CN1CCCCC1)N1CCCCC1)c1ccccc1 (stereo not given)	3.07%	–	2310 nM [rising, single point]
O=C(COC(=O)c1cc([N+](=O)[O-])ccc1N1CCOCC1)NCc1ccc(F)cc1	-19.8%	–	25900 nM [falling, single point]
CN(C)CCNC(=O)NC(=O)c1ccc(Cl)cc1	-22.1%	–	731 nM [falling, full curve]
CC(C)(C)CN1CCN(CCCc2ccccc2)C(CCO)C1 (stereo not given)	-0.293%	–	206 nM [rising, full curve, poor fit]
Cc1ccc2nc(-c3ccc(O)c(O)c3)cn2c1	-27.9%	–	32600 nM [falling, single point]
COc1cccc(C(=O)NCCSc2ccc(C)cc2)c1	–	10.3 nM [falling, full curve, poor fit]	580 nM [falling, full curve, poor fit]
CC1CCCN(S(=O)(=O)c2ccc(N(C(=O)c3cnccn3)C(C(=O)NC3CCCCC3)c3cccs3)cc2)C1 (stereo not given)	-3.75%	–	–
COC(=O)CCNS(=O)(=O)c1ccc2nsnc2c1	47.7%	25900 nM [rising, single point]	23100 nM [rising, partial curve, poor fit]
O=C(c1ccccc1)c1coc2ccc(O)c(Cl)c12	-36.9%	2060 nM [falling, full curve, poor fit]	20600 nM [falling, partial curve]
Cc1ccccc1Nc1nnc(SCc2cc([N+](=O)[O-])cc3c2OCOC3)s1	–	461 nM [rising, partial curve]	920 nM [rising, partial curve]
CC(C)n1cc(CN2CCC(C(=O)Nc3cccc(-c4cccc(Cl)c4)c3)CC2)cn1	-24.6%	–	6510 nM [rising, single point]
CC(NC(=O)NNC(N)=S)(C(F)(F)F)C(F)(F)F	14%	4110 nM [rising, partial curve, poor fit]	2060 nM [rising, partial curve]
O=C(COC(=O)CNS(=O)(=O)c1ccc(Cl)cc1)NC1CCCCC1	-49.7%	14600 nM [falling, single point]	291 nM [rising, full curve]
CCOC(=O)CSc1nc(NCc2ccco2)c2ccccc2n1	-16.3%	–	366 nM [falling, partial curve]
CN(CCC#N)S(=O)(=O)c1ccc2[nH]cc(C(=O)NCCc3ccccc3)c(=O)c2c1	20.7%	–	–
O=C1c2ccccc2C(=O)N1Cc1cnc(N2CCN(c3ccccc3)CC2)s1	–	146 nM [falling, full curve, poor fit]	146 nM [falling, full curve, poor fit]
Cc1ccc(/C=N/N=C/c2ccc(C)s2)s1	25.1%	–	13000 nM [rising, partial curve]
CCOC(=O)C1(Cc2ccccc2)CCN(Cc2cccc3nccnc23)CC1	27.2%	–	1030 nM [rising, full curve, poor fit]

Exported with bars between the fields: entries from further up
SMILES | cell number change | AC50 [1] | AC50 [2]
O=C(COC(=O)c1cc([N+](=O)[O-])ccc1N1CCOCC1)NCc1ccc(F)cc1 | -19.8% | – | 25900 nM [falling, single point]
CN(C)CCNC(=O)NC(=O)c1ccc(Cl)cc1 | -22.1% | – | 731 nM [falling, full curve]
